Test results taken from paper PMC7949032.
For some of these results: No signal at the amounts used counts as a negative. For some of these results: At least one verdict rests on a figure or table, not on a statement of the authors. For some of these results: Protein sequences can lack the tags named with them. For some of these results: The exact form of at least one protein or probe is not confirmed. For some of these results: The comparison behind a weaker result is the experiment's own reference, which may not be listed here.

Assays:
DDX43 KH-126 [1] = assay: EMSA; settings: up to 9.6 uM protein; EMSA: 40 mM Tris pH 8.0, 0.5 mM MgCl2, 15 mM NaCl, 0.01% NP-40, 0.1 mM DTT, 1 mg/ml BSA, no ATP, ice 30 min (Fig 2A legend: RT); recombinant protein; protein details: His (pET28a); label: 5'-32P
DDX43 KH-74 = biological target: T1, DDX43 KH-74 (UniProt Q9NXZ2); assay: EMSA; settings: EMSA: 40 mM Tris pH 8.0, 0.5 mM MgCl2, 15 mM NaCl, 0.01% NP-40, 0.1 mM DTT, 1 mg/ml BSA, no ATP, ice 30 min (Fig 2A legend: RT); recombinant protein; protein details: His (pET28a); label: 5'-32P
T1 sequence (looked up, limits assumed): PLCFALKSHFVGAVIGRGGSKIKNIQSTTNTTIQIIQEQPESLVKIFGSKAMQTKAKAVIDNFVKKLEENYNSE

DDX43 KH-89 = biological target: T2, DDX43 KH-89 (UniProt Q9NXZ2); assay: EMSA; settings: EMSA: 40 mM Tris pH 8.0, 0.5 mM MgCl2, 15 mM NaCl, 0.01% NP-40, 0.1 mM DTT, 1 mg/ml BSA, no ATP, ice 30 min (Fig 2A legend: RT); recombinant protein; residues 54-142; label: 5'-32P
T2 sequence (looked up): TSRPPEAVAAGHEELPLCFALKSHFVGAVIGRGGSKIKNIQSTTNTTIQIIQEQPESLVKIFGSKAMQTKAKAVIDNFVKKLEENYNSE

DDX43 KH-126 [2] = assay: filter binding; settings: Kd not determined, weak binding; filter binding: 25 mM Tris pH 7.5, 25 mM KOAc, 1 mM Mg(OAc)2, 1 mM DTT, 0.1 mg/ml BSA, 37 C; recombinant protein; protein details: His (pET28a); label: 5'-32P

“GAGCUACCAGCUACCCCGUAUGUCAGAGAG / CUCUCUGACAUACGGGGUAGCUGGUAGCUC [blunt-end dsRNA 30 bp]”: no binding (DDX43 KH-126 [1]); no binding (DDX43 KH-74); no binding (DDX43 KH-89). “GAGCUACCAGCUACCCCGUAUGUCAGAGAG / CUCUCUGACAUACGGGGUAGCUGGUAGCUC [blunt-end dsRNA 30 bp]”: binds more weakly (DDX43 KH-126 [2]).
